Whole data set: some 33,000 sequences, median “E-score (-0.5 to 0.5)” near -0.016, cut for the highest 2% near 0.3. The list shows a part of the results.

This assay deals with T1, Yer184c (UniProt P39961).
T1 sequence: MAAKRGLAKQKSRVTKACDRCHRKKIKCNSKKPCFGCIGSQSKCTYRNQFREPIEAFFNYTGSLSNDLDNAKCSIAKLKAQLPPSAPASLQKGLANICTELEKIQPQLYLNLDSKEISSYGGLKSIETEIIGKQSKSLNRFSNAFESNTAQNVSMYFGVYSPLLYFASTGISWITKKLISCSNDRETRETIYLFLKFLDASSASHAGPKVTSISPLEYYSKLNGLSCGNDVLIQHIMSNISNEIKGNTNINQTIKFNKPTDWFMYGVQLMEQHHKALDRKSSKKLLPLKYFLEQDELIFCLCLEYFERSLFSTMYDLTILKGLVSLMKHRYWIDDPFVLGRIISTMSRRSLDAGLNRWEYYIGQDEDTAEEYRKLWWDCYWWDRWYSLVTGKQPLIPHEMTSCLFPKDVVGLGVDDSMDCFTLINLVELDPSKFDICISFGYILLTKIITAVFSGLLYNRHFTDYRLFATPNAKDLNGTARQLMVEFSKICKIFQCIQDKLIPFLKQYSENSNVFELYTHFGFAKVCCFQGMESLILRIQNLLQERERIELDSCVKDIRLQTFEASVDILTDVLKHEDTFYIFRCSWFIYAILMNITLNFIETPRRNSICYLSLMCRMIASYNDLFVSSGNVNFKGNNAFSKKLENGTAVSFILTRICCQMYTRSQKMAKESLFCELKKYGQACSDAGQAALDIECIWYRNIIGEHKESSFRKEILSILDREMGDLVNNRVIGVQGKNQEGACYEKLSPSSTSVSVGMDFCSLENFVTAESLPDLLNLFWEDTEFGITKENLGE
Kind of assay: PBM E-score (8-mer binding enrichment) (E-score (-0.5 to 0.5)); higher = stronger / more preferred TF binding. The settings on record: protein concentration: 100 nM; construct: GST-full length. An outline of the steps: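 Masliner-normalised scans of fluorescent anti-GST signal were the basis for scoring. That signal came from GST-tagged yeast transcription factors applied at about 100-200 nM to double-stranded universal all-10-mer Agilent arrays on fresh or once-stripped slides. Each ungapped eight-base word, pooled with its reverse complement, received an E-score from the Universal PBM Analysis Suite.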
Regarding AGCAAAAG, the “PBM E-score” value was -0.11.
Turning to AAGTGTAT, the “PBM E-score” value is -0.162.
On to CTCGATAC, for which the “PBM E-score” value is 0.1.
With TATCTCCA, the “PBM E-score” value was -0.00899.
In the case of CTATACAC, the “PBM E-score” value was -0.191.
Take AGAGGACG: the “PBM E-score” value stood at 0.0187.
In the case of CTACTTGC, the “PBM E-score” value was found to be 0.0781.
CCTGCCAA: the “PBM E-score” value is -0.137.
In the case of AACTAGCT, the “PBM E-score” value is -0.0226.
Next, ATGCGTTC: 0.142; ATCGGAGA: 0.216.
Take GAACGGCC: the “PBM E-score” value was 0.135.
As for AGTGCTAG, the “PBM E-score” value was -0.133.
For the sequence ACGATACA, the “PBM E-score” value is -0.089.
The same measure for AATCTGTC: -0.00095; for GTGAACAA: 0.1.
As for ACTACCCC, the “PBM E-score” value was -0.239.
As for ACCCCGAA, the “PBM E-score” value amounted to 0.207.
With AAGTCCTA, the “PBM E-score” value is -0.0369.
In the case of AAACAGGG, the “PBM E-score” value was -0.276.
On to AAAGACGC, for which the “PBM E-score” value was -0.0261.
Take ACGCTTGC: the “PBM E-score” value is -0.153.
With ACACGCAT, the “PBM E-score” value was -0.0669.
The same measure for CACCAAAC: 0.0683; for ATTACTTG: 0.0505.
The same measure for ATGCGCTG: -0.119.
The same measure for CCCGTGGA: -0.0641; for GAGGAACA: 0.188; for CCCCCCAA: -0.322.
Regarding CCGCCGTA, the “PBM E-score” value stood at 0.075.
Next, CTGTGACC: -0.213.
Consider GCGCCTAC, for which the “PBM E-score” value is -0.0199.
Turning to AGAAGGCG, the “PBM E-score” value was -0.201.
For CTGGATCC, the “PBM E-score” value is 0.143.
Next, GGGTGGGA: -0.23; AATACGGT: -0.0873; GAACTCTC: -0.117.
Regarding GATCCTTA, the “PBM E-score” value was -0.128.
Take TCCCTGAA: the “PBM E-score” value was found to be 0.00408.
In the case of CTAGTCTA, the “PBM E-score” value was -0.208.
For the sequence AAATTCGT, the “PBM E-score” value is 0.261.
On to AACTCTAT, for which the “PBM E-score” value is -0.0925.
Regarding CCCGGTAA, the “PBM E-score” value was determined as 0.221.
Consider ACTACTAA, for which the “PBM E-score” value amounted to 0.0902.
On to AATCTTTA, for which the “PBM E-score” value is 0.161.
Turning to ACCAGTTG, the “PBM E-score” value was found to be 0.0141.
As for AACCAGGA, the “PBM E-score” value is -0.0486.
The same measure for TAGCAAAA: 0.203; for CCTAGACC: -0.214.
Consider CTACCATA, for which the “PBM E-score” value was -0.109.
As to GTGACCAC, the “PBM E-score” value is -0.089.
Turning to AAAAGCTC, the “PBM E-score” value is 0.0775.
Next, CGTGTAAA: -0.0166; CCTTGGTC: -0.121.
Turning to CTATAGAG, the “PBM E-score” value was -0.0837.
Regarding CGCCACGC, the “PBM E-score” value is -0.0756.
As for GAGACCGC, the “PBM E-score” value is -0.0768.
On to CGCTTGTC, for which the “PBM E-score” value was -0.00249.
As to GTGCTGTA, the “PBM E-score” value is 0.0377.
Next, CATGAATC: -0.0648; AATCGTAA: -0.102; CCAGCATC: -0.069.
In the case of CTACCCCA, the “PBM E-score” value is -0.217.
Next, CTGATCTA: 0.0444.
As for AGCAGCGG, the “PBM E-score” value was -0.0135.
Next, ACCGCTCT: -0.0521; ATAAAGAA: 0.166.
With GGAAGACA, the “PBM E-score” value turned out to be 0.0786.
Next, AATACCAT: 0.161.
Consider TAGTCATA, for which the “PBM E-score” value is -0.117.
Turning to ACTCCGAA, the “PBM E-score” value amounted to 0.241.
AAAAGGTA: the “PBM E-score” value is -0.0866.
Next, CATGTAAA: -0.0482; ACTATTAG: 0.0716; GATAAAAC: 0.305.
For the sequence TACCCGGA, the “PBM E-score” value amounted to 0.354.
Regarding CCGAGTCA, the “PBM E-score” value was found to be 0.198.
The same measure for CCAATGGC: -0.109.
In the case of AGTCAGCC, the “PBM E-score” value is -0.105.
The same measure for AGGAGTGG: -0.149; for CACTAGGC: -0.175; for CACCAAAA: 0.0384.
For ATTCAAGC, the “PBM E-score” value stood at 0.181.
Take AACACTGC: the “PBM E-score” value turned out to be 0.0293.
The same measure for ACTACGGA: 0.155; for TCTGGTCA: -0.0629.
